Substitutions are numbered along the chain they refer to. Names and notes keep the numbering of the source.
B1: L131T, S172D in SEQ ID NO: 33: engineered chimeric α7-nAChR/GlyRα1 LGIC receptor: SEQ ID NO: 33 with substitutions L131T and S172D (protein)
chain: MRCSPGGVWLALAASLLHVSLQGEFQRKLYKELVKNYNPLERPVANDSQPLTVYFSLSLLQIMDVDEKNQVLTTNIWLQMSWTDHYLQWNVSEYPGVKTVRFPDGQIWKPDILLYNSADERFDATFHTNVTVNSSGHCQYLPPGIFKSSCPMDLKNFPMDVQTCKLKFGSWDYGGWSLDLQMQEADISGYIPNGEWDLVGIPGKRSERFYECCKEPYPDVTFTVTMRRRMGYYLIQMYIPSLLIVILSWISFWINMDAAPARVGLGITTVLTMTTQSSGSRASLPKVSYVKAIDIWMAVCLLFVFSALLEYAAVNFVSRQHKELLRFRRKRRHHKSPMLNLFQEDEAGEGRFNFSAYGMGPACLQAKDGISVKGANNSNTTNPPPAPSKSPEEMRKLFIQRAKKIDKISRIGFPMAFLIFNMFYWIIYKIVRREDVHNQ
modifications: synthetic sequence of chimeric LGIC
B2: Y115D, L131E in SEQ ID NO: 33: engineered chimeric α7-nAChR/GlyRα1 LGIC receptor: SEQ ID NO: 33 with substitutions Y115D and L131E (protein)
chain: B1 chain with Y115D, T131E, D172S
modifications: synthetic sequence of chimeric LGIC
B3: Y115D, S170T in SEQ ID NO: 33: engineered chimeric α7-nAChR/GlyRα1 LGIC receptor: SEQ ID NO: 33 with substitutions Y115D and S170T (protein)
chain: B1 chain with Y115D, T131L, S170T, D172S
modifications: synthetic sequence of chimeric LGIC
B4: Y115D, L131Q in SEQ ID NO: 33: CR-11 (Chemogenic receptor-11): SEQ ID NO: 33 with substitutions Y115D and L131Q (protein)
chain: B1 chain with Y115D, T131Q, D172S
modifications: synthetic sequence of chimeric LGIC
B5: L131S, S172D in SEQ ID NO: 33: engineered chimeric α7-nAChR/GlyRα1 LGIC receptor: SEQ ID NO: 33 with substitutions L131S and S172D (protein)
chain: B1 chain with T131S
modifications: synthetic sequence of chimeric LGIC
B6: L131D, S172D in SEQ ID NO: 33: engineered chimeric α7-nAChR/GlyRα1 LGIC receptor: SEQ ID NO: 33 with substitutions L131D and S172D (protein)
chain: B1 chain with T131D
modifications: synthetic sequence of chimeric LGIC

Each molecule was assayed on HEK293T cells (assay: Cell surface localization, HA tag flow cytometry). Details: % HA-tag positive HEK293T cells, normalized to SEQ ID NO: 33 control.
Assay type: cell-based
B1 was tested, and the “Average HA tag %” value was 92%. With B2 the “Average HA tag %” value was 87%. B3 was tested, and the “Average HA tag %” value was 0%. With B4 the “Average HA tag %” value was 62%. With B5 the “Average HA tag %” value was 33%. In the case of B6, the “Average HA tag %” value is reported as 58%.

Same assay, conditions: anti-HA fluorescence intensity, normalized to SEQ ID NO: 33 control
B1 was tested, and the “Average HA MFI” value was 0.93. In the case of B2, the “Average HA MFI” value is reported as 0.92. For B3, the “Average HA MFI” value was 0.80. B4 was tested, and the “Average HA MFI” value was 0.76. With B5 the “Average HA MFI” value was 0.77. With B6 the “Average HA MFI” value was 0.82.

Same assay, conditions: versus SEQ ID NO: 33
With B1 the “cell surface localization compared to the parental chimera, HA tag” value was “comparable localization”. In the case of B2, the “cell surface localization compared to the parental chimera, HA tag” value is reported as “comparable localization”.

These molecules were tested on HEK293T cells (assay: not given). Details: not given.
Assay type: cell-based
For B1, the “Normalized AB %” value was 32% and the “Normalized AB MFI” value was 0.75. B2 was tested, and the “Normalized AB %” value was 73% and the “Normalized AB MFI” value was 0.90. In the case of B3, the “Normalized AB %” value is reported as 17% and the “Normalized AB MFI” value is reported as 0.64. B4 was tested, and the “Normalized AB %” value was 35% and the “Normalized AB MFI” value was 0.72. In the case of B5, the “Normalized AB %” value is reported as 48% and the “Normalized AB MFI” value is reported as 0.83. For B6, the “Normalized AB %” value was 45% and the “Normalized AB MFI” value was 0.88.

Same assay, conditions: versus SEQ ID NO: 33
In the case of B2, the “cell surface localization compared to the parental chimera, α-bungarotoxin” value is reported as “comparable localization”.

From US20220348635A1, “COMPOSITIONS AND METHODS FOR NEUROLOGICAL DISEASES” (Coda Biotherapeutics, Inc., priority 2019, published 2022)
